Data: patent US20260007760A1, “CAMPTOTHECIN DERIVATIVES THAT BIND TO DDX5 PROTEIN AND PRODRUGS THEREOF” (priority 2022, published 2026)
Some of these results come from one statement about several compounds together.

Assay: Lactone to carboxylate form conversion in pH 7.4 (RP-HPLC)
Type: physicochemical
Settings: pH 7.4, 37° C.

Q: For `CC[C@@]1(O)C(=O)OCc2c1cc1n(c2=O)Cc2c-1nc1cc3c(c4c1c2[C@@H](NC(=O)CO)CC4)OCO3` [PBX-7014], which “Degree of formation of the carboxylate form” value is on record?
A: ≥ 86%
